Data from patent US5411879A, “Fatty acyl reductases” (Calgene Inc., priority 1993, dated 1995).
At least one structure is not confirmed: it was looked up by name or label, or the drawing left a doubt.

How the values were obtained:
[1] = tested on: jojoba acyl-CoA reductase; test: Acyl (substrate) specificity of the reductase, microsomal membrane preparation; assay type: biochemical; details: substrates compared at 10 uM, 0.5M NaCl; listed as tetracosenayl-CoA
Excerpt: (§1) 3. […] NaCl concentration in these assays is 0.5M.

[2] = molecular target: T1, jojoba acyl-CoA reductase (Simmondsia chinensis, UniProt Q9XGY7); test: as above; assay type: biochemical; design: The microsomal membrane preparation described above is used for further characterization of the reductase enzyme; from tissue; host or cells: developing jojoba embryos (seed coats removed), microsomal membrane preparation; details: at substrate concentrations greater than 10 uM
T1 sequence (Q9XGY7 1-493): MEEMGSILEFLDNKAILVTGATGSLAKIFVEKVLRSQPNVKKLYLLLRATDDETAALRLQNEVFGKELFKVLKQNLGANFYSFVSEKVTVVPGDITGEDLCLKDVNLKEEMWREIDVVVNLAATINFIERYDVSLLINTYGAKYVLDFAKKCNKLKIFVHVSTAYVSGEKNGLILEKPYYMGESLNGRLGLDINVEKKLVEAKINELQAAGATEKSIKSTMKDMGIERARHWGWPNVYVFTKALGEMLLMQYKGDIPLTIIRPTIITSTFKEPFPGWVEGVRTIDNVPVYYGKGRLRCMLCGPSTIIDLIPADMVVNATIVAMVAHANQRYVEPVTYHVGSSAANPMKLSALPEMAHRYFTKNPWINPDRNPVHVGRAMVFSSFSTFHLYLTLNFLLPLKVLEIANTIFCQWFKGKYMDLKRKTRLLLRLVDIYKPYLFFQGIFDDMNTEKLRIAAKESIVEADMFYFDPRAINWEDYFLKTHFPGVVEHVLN
Excerpt: as §1

**Q.** What does the source list for `CCCCCCCC/C=C\CCCCCCCCCCCCCC(=O)SCCNC(=O)CCNC(=O)[C@H](O)C(C)(C)COP(=O)(O)OP(=O)(O)OC[C@H]1O[C@@H](n2cnc3c(N)ncnc32)[C@H](O)[C@@H]1OP(=O)(O)O` [24:1 Acyl-CoA, tetracosenoyl-CoA]?
**A.** activity as substrate of the reductase (in words) [1]: preferred activity; substrate inhibition of the reductase [2]: strong substrate inhibition
